± gives the standard deviation of the averaged measurements. The effect of the compound repeats well; differences between the knockouts mostly do not.
Test system: ZR-75-1
Test: relative cell number vs DMSO control (72 h) (% of DMSO); higher = less growth inhibition (more cells)
Procedure: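 QMAP-Seq: a pool of 5 breast cancer cell lines (ZR-75-1, SKBR3, HCC-38, MDA-MB-231, BT-20), each carrying 12 doxycycline-inducible Cas9 sgRNA perturbations (11 knockouts plus non-targeting sgNT), was treated with compounds for 72 h at four 10-fold doses (10 nM-10 uM or 1 nM-1 uM range). Barcodes were amplified and sequenced, and cell number was interpolated from 293T spike-in standard curves. The result is expressed as % of the median of DMSO wells. Two biological replicates.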

[1] = sgRNA knockout: sgATF3, 1000 nM
[2] = sgRNA knockout: sgATF3, 10000 nM
[3] = sgRNA knockout: sgATF4, 1000 nM
[4] = sgRNA knockout: sgATF4, 10000 nM
[5] = sgRNA knockout: sgATF6, 1000 nM
[6] = sgRNA knockout: sgATF6, 10000 nM
[7] = sgRNA knockout: sgATG7, 1000 nM
[8] = sgRNA knockout: sgATG7, 10000 nM
[9] = sgRNA knockout: sgERN1, 1000 nM
[10] = sgRNA knockout: sgERN1, 10000 nM
[11] = sgRNA knockout: sgHSF2, 1000 nM
[12] = sgRNA knockout: sgHSF2, 10000 nM
[13] = sgRNA knockout: sgNFE2L2, 10 nM
[14] = sgRNA knockout: sgNFE2L2, 100 nM
[15] = sgRNA knockout: sgNFE2L2, 1000 nM
[16] = sgRNA knockout: sgNFE2L2, 10000 nM
[17] = sgRNA knockout: sgSLC35F2, 10 nM
[18] = sgRNA knockout: sgSLC35F2, 100 nM
[19] = sgRNA knockout: sgSLC35F2, 1000 nM
[20] = sgRNA knockout: sgSLC35F2, 10000 nM
[21] = sgRNA knockout: sgXBP1, 1000 nM
[22] = sgRNA knockout: sgXBP1, 10000 nM

Structure (SMILES)	relative cell number (sgRNA knockout: sgATF3, 10 nM)	relative cell number (sgRNA knockout: sgATF3, 100 nM)	relative cell number [1]	relative cell number [2]	relative cell number (sgRNA knockout: sgATF4, 10 nM)	relative cell number (sgRNA knockout: sgATF4, 100 nM)	relative cell number [3]	relative cell number [4]	relative cell number (sgRNA knockout: sgATF6, 10 nM)	relative cell number (sgRNA knockout: sgATF6, 100 nM)	relative cell number [5]	relative cell number [6]	relative cell number (sgRNA knockout: sgATG7, 10 nM)	relative cell number (sgRNA knockout: sgATG7, 100 nM)	relative cell number [7]	relative cell number [8]	relative cell number (sgRNA knockout: sgERN1, 10 nM)	relative cell number (sgRNA knockout: sgERN1, 100 nM)	relative cell number [9]	relative cell number [10]	relative cell number (sgRNA knockout: sgHSF2, 10 nM)	relative cell number (sgRNA knockout: sgHSF2, 100 nM)	relative cell number [11]	relative cell number [12]	relative cell number [13]	relative cell number [14]	relative cell number [15]	relative cell number [16]	relative cell number [17]	relative cell number [18]	relative cell number [19]	relative cell number [20]	relative cell number (sgRNA knockout: sgXBP1, 10 nM)	relative cell number (sgRNA knockout: sgXBP1, 100 nM)	relative cell number [21]	relative cell number [22]
Fc1ccc(CNc2ncnc3ccc(F)cc23)cc1 [Spautin1]	119 ± 13	113 ± 40	118 ± 28	61.9 ± 11	103 ± 35	98.4 ± 7.5	91.2 ± 26	55.4 ± 5.7	173 ± 80	85.3 ± 39	118 ± 1.4	45.3 ± 14	101 ± 46	99.5 ± 12	87.2 ± 26	62.9 ± 22	88.7 ± 18	91.5 ± 26	74.9 ± 10	62.1 ± 18	111 ± 17	112 ± 3.5	102 ± 2.4	52.5 ± 11	117 ± 16	105 ± 31	91.1 ± 8.9	63.1 ± 5.8	93.3 ± 69	82.8 ± 9.6	81.4 ± 4.5	35.2 ± 1.3	98.85 ± 0.32	91.1 ± 2.6	92.7 ± 27	62 ± 13
NC(=O)Nc1sc(-c2ccc(F)cc2)cc1C(N)=O [TPCA1]	125 ± 2.6	121 ± 6.1	95.9 ± 9.1	39.7 ± 2.5	110 ± 18	116 ± 3.7	119 ± 14	61.67 ± 0.54	129 ± 34	95.5 ± 11	110 ± 18	40 ± 1.5	111 ± 44	111 ± 3.9	123 ± 16	41.7 ± 10	110 ± 15	106 ± 5.5	89.5 ± 11	50.5 ± 9.2	108 ± 6.4	98 ± 28	113 ± 13	44.9 ± 8.2	115 ± 43	108 ± 24	115 ± 3.6	32.5 ± 14	103 ± 66	177 ± 11	117 ± 26	50.8 ± 15	95.5 ± 22	103 ± 8.7	95.5 ± 4.9	47.1 ± 8.3
Cn1nnc2c(C(N)=O)ncn2c1=O [Temozolomide]	120 ± 28	94.2 ± 4.2	111 ± 33	88 ± 61	136 ± 2.8	107 ± 4.2	148 ± 3.4	116 ± 36	113 ± 29	87.1 ± 28	79.8 ± 35	94.8 ± 60	81.5 ± 20	82 ± 21	86.8 ± 37	99.4 ± 45	102 ± 17	80.9 ± 5.5	108 ± 33	112 ± 62	92.6 ± 4	90.3 ± 6.4	108 ± 6.4	82.4 ± 31	116 ± 6.6	106 ± 15	115 ± 27	105 ± 36	103 ± 36	136 ± 33	128 ± 42	152 ± 59	105 ± 1.2	84.8 ± 16	115 ± 23	96 ± 42
O=C1CCC(N2C(=O)c3ccccc3C2=O)C(=O)N1 (centres undefined) [Thalidomide]	102 ± 15	86.8 ± 27	87.7 ± 56	102 ± 17	137 ± 31	82.4 ± 32	129 ± 21	110 ± 41	95.7 ± 9.5	69.4 ± 17	115 ± 41	66.8 ± 22	79 ± 42	77.9 ± 5.8	104 ± 36	94.8 ± 7.5	109 ± 47	78.9 ± 2.1	86.4 ± 6.8	99.3 ± 13	90.9 ± 23	83.8 ± 30	104 ± 54	122 ± 50	115 ± 2.7	88.3 ± 15	142 ± 43	103 ± 17	112 ± 49	74.3 ± 11	139 ± 31	116 ± 35	98.1 ± 7.6	72.8 ± 2.7	105 ± 15	105 ± 24
CN(C)c1cc(NC(=O)CNC(C)(C)C)c(O)c2c1C[C@H]1C[C@H]3[C@H](N(C)C)C(O)=C(C(N)=O)C(=O)[C@@]3(O)C(O)=C1C2=O [Tigecycline]	105 ± 39	110 ± 35	122 ± 33	113 ± 21	127 ± 5.2	81.1 ± 28	109 ± 27	99.7 ± 73	93.9 ± 9.7	69.3 ± 22	130 ± 30	89.3 ± 21	126 ± 24	125 ± 7.2	92.3 ± 13	84.9 ± 14	107 ± 4.2	106 ± 31	109.2 ± 0.28	99.8 ± 1.9	103 ± 29	119 ± 18	95.1 ± 17	115 ± 24	98.7 ± 5	91.3 ± 29	87 ± 1.7	80.6 ± 7.2	98.8 ± 65	70.3 ± 45	140 ± 21	119 ± 28	103 ± 20	104 ± 40	100 ± 7.3	80.4 ± 16
CC[C@@]1(O)C(=O)OCc2c1cc1n(c2=O)Cc2cc3c(CN(C)C)c(O)ccc3nc2-1 [Topotecan]	66.4 ± 11	35 ± 4.7	25.7 ± 5.3	12.6 ± 1.9	85.6 ± 34	47 ± 4.2	17.3 ± 3.1	10.8 ± 0.52	64.7 ± 5.5	34 ± 1.6	29.4 ± 19	11.6 ± 6.1	78.53 ± 0.49	32 ± 18	20.5 ± 2.7	8.59 ± 6.7	60.2 ± 18	48.9 ± 2.3	29.4 ± 3.1	9.9 ± 1.7	69.6 ± 6.3	37.6 ± 0.81	27.8 ± 9.3	7.1 ± 0.5	72.18 ± 0.2	49.1 ± 12	22.5 ± 0.36	5.67 ± 2.8	56.6 ± 47	58.3 ± 4.8	26.5 ± 8.6	4.41 ± 2.6	62 ± 8.1	44.1 ± 5.9	24.2 ± 9.7	8.66 ± 1.2
CN1CCN(CCCN2c3ccccc3Sc3ccc(C(F)(F)F)cc32)CC1 [Trifluoperazine]	70.9 ± 34	112 ± 27	86.5 ± 40	51.9 ± 4.6	91.3 ± 21	87.5 ± 21	73.1 ± 1.8	59.8 ± 16	89.4 ± 28	118 ± 31	65.3 ± 6.5	56.8 ± 33	81.1 ± 14	67.9 ± 4.5	75.5 ± 3.1	50.7 ± 12	75.3 ± 12	95.9 ± 5.5	121 ± 12	52 ± 2.5	76.7 ± 27	115 ± 28	73.3 ± 2	58.8 ± 7.1	80.9 ± 30	80.6 ± 9.1	76.5 ± 4.1	79.9 ± 8.9	72.6 ± 23	93.1 ± 12	29.2 ± 15	28.1 ± 8.8	82.53 ± 0.7	96.27 ± 0.8	73.7 ± 6	68.2 ± 4.1
CN1CCc2c(c3ccccc3n2Cc2ccc(C(=O)NO)cc2)C1 [TubastatinA]	109 ± 16	83.9 ± 3.3	116 ± 69	79.2 ± 3.9	71.8 ± 20	60.1 ± 26	93.2 ± 32	67.5 ± 4.6	66.4 ± 22	73.9 ± 8	57.1 ± 7.5	73.8 ± 12	82.1 ± 16	97.1 ± 30	104 ± 42	47.9 ± 9.5	77.5 ± 0.99	79 ± 8	86.7 ± 3.3	72.9 ± 2.9	116 ± 1.7	108 ± 17	103 ± 52	65.27 ± 0.53	109 ± 28	101 ± 20	91.4 ± 4.2	63.3 ± 11	77.8 ± 22	73.4 ± 12	76.4 ± 29	42.2 ± 12	92 ± 9.4	91.44 ± 0.11	103 ± 9.7	63.4 ± 3.5
CCC[C@H](NC(=O)/C(C#N)=C/c1cccc(Br)n1)c1ccccc1 [WP1130]	107 ± 18	106.1 ± 0.25	85.5 ± 14	6.45 ± 1.6	84.4 ± 2.5	117 ± 8.8	131 ± 12	8.63 ± 1.7	105 ± 21	56.9 ± 14	118 ± 22	6.51 ± 2.1	114 ± 30	91 ± 27	75.5 ± 15	4.4 ± 0.27	86.5 ± 2.8	105.7 ± 0.49	105 ± 19	11.6 ± 7.5	112 ± 2.2	119 ± 6.2	75.8 ± 8.2	8.08 ± 3.8	99.33 ± 0.27	118 ± 18	95.1 ± 15	9.78 ± 5.9	64 ± 9	69.4 ± 46	63.5 ± 13	6.99 ± 3.2	99.4 ± 13	102 ± 29	89.7 ± 5.8	8.27 ± 2.5

Single records (already shown). Values in the order: relative cell number (sgRNA knockout: sgATF3, 10 nM) | relative cell number (sgRNA knockout: sgATF3, 100 nM) | relative cell number [1] | relative cell number [2] | relative cell number (sgRNA knockout: sgATF4, 10 nM) | relative cell number (sgRNA knockout: sgATF4, 100 nM) | relative cell number [3] | relative cell number [4] | relative cell number (sgRNA knockout: sgATF6, 10 nM) | relative cell number (sgRNA knockout: sgATF6, 100 nM) | relative cell number [5] | relative cell number [6] | relative cell number (sgRNA knockout: sgATG7, 10 nM) | relative cell number (sgRNA knockout: sgATG7, 100 nM) | relative cell number [7] | relative cell number [8] | relative cell number (sgRNA knockout: sgERN1, 10 nM) | relative cell number (sgRNA knockout: sgERN1, 100 nM) | relative cell number [9] | relative cell number [10] | relative cell number (sgRNA knockout: sgHSF2, 10 nM) | relative cell number (sgRNA knockout: sgHSF2, 100 nM) | relative cell number [11] | relative cell number [12] | relative cell number [13] | relative cell number [14] | relative cell number [15] | relative cell number [16] | relative cell number [17] | relative cell number [18] | relative cell number [19] | relative cell number [20] | relative cell number (sgRNA knockout: sgXBP1, 10 nM) | relative cell number (sgRNA knockout: sgXBP1, 100 nM) | relative cell number [21] | relative cell number [22]
Cn1nnc2c(C(N)=O)ncn2c1=O [Temozolomide] in the list: 120 ± 28 | 94.2 ± 4.2 | 111 ± 33 | 88 ± 61 | 136 ± 2.8 | 107 ± 4.2 | 148 ± 3.4 | 116 ± 36 | 113 ± 29 | 87.1 ± 28 | 79.8 ± 35 | 94.8 ± 60 | 81.5 ± 20 | 82 ± 21 | 86.8 ± 37 | 99.4 ± 45 | 102 ± 17 | 80.9 ± 5.5 | 108 ± 33 | 112 ± 62 | 92.6 ± 4 | 90.3 ± 6.4 | 108 ± 6.4 | 82.4 ± 31 | 116 ± 6.6 | 106 ± 15 | 115 ± 27 | 105 ± 36 | 103 ± 36 | 136 ± 33 | 128 ± 42 | 152 ± 59 | 105 ± 1.2 | 84.8 ± 16 | 115 ± 23 | 96 ± 42
CN1CCc2c(c3ccccc3n2Cc2ccc(C(=O)NO)cc2)C1 [TubastatinA] in the list: 109 ± 16 | 83.9 ± 3.3 | 116 ± 69 | 79.2 ± 3.9 | 71.8 ± 20 | 60.1 ± 26 | 93.2 ± 32 | 67.5 ± 4.6 | 66.4 ± 22 | 73.9 ± 8 | 57.1 ± 7.5 | 73.8 ± 12 | 82.1 ± 16 | 97.1 ± 30 | 104 ± 42 | 47.9 ± 9.5 | 77.5 ± 0.99 | 79 ± 8 | 86.7 ± 3.3 | 72.9 ± 2.9 | 116 ± 1.7 | 108 ± 17 | 103 ± 52 | 65.27 ± 0.53 | 109 ± 28 | 101 ± 20 | 91.4 ± 4.2 | 63.3 ± 11 | 77.8 ± 22 | 73.4 ± 12 | 76.4 ± 29 | 42.2 ± 12 | 92 ± 9.4 | 91.44 ± 0.11 | 103 ± 9.7 | 63.4 ± 3.5

— the supplement of paper PMC7661543
